In publication PMC4994047:
These are yes or no findings as the source states them, for the method shown.

Molecular target: MamM CTD M250P (Magnetospirillum gryphiswaldense MSR-1) (UniProt V6F235)
Assay: SEC-MALS; MamM CTD M250P at 4 mg mL^-1, 200 uL injected on Superdex75 10/300 GL in Buffer F (10 mM Tris-HCl pH 8, 50 mM NaCl, 5 mM beta-mercaptoethanol); both purified

B1: MamM CTD M250P (domain or fragment, UniProt V6F235 215-318)
chain: EAVQNRIVEAAERVPGVRGVIHLRARYVGQDIWADPIIGVDPENTVEQAHEICEAVQAAVCGKIRRIESLHVSAEAREIGDTTKPSFSDQPLSFDEVMLSKVDN
binding: no binding (tested: 4 mg mL^-1)
